This passage reports binding results from publication PMC6858330.

The chains behind the UniProt entries cited, without tags or fusion partners. Residues count along the entry.
UniProt Q15075, residues 1-209: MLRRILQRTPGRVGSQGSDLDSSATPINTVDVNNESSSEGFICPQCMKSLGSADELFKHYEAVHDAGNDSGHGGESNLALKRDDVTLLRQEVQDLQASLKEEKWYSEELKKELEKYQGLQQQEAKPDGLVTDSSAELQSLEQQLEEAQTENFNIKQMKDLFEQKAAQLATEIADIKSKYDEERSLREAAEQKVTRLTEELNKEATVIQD

Positions count from the first letter of the chain named. In names and notes the source's numbering stands. Results are given in words; binding and its absence hold for the method and conditions named. Binding seen in cells or lysates may run through a third protein. Some binding calls cover weakened binding; strength is not graded here. For some of these results: Where a sequence is shown, tags or fusion partners need not be part of it.

The target in assay [1] is GST-tagged N terminal portion of human EEA1 (GST-EEA1NT) (human) (UniProt Q15075). The experiment in a line: pull-down; purified GST-EEA1NT tested on the GTP-bound (Q66L) and GDP-bound (S21N) forms of Vps21p (Supplementary Fig. 6c); source of the Vps21p mutants not told in the text shown.
For assay [2] the target is unchanged. The assay is described as follows: pull-down; as a1, but with lysate of cells lacking the Vps21p-GEFs (vps9Δ muk1Δ); only the target purified.
Assay [3] has the same target. The assay is described as follows: pull-down; GST-EEA1NT bound to Glutathione-sepharose 4B incubated 1 h in the cold room with cleared lysate of yeast cells expressing GFP-Vps21p (wild type; also sac6Δ scp1Δ, arf1Δ, ent3Δ ent5Δ, vps9ΔCUE, vps9ΔCUE arf1Δ, vps9Δ); 20 mM Tris-HCl pH 7.5, 100 mM NaCl, 1 mM EDTA, 10 mM DTT; eluted with 10 mM glutathione; anti-GFP blot; only the target purified.

B1: GTP-bound form of Vps21p (Vps21 Q66L) (protein, UniProt P36017 1-210)
chain: MNTSVTSIKLVLLGEAAVGKSSIVLRFVSNDFAENKEPTIGAAFLTQRVTINEHTVKFEIWDTAGLERFASLAPMYYRNAQAALVVYDVTKPQSFIKARHWVKELHEQASKDIIIALVGNKIDMLQEGGERKVAREEGEKLAEEKGLLFFETSAKTGENVNDVFLGIGEKIPLKTAEEQNSASNERESNNQRVDLNAANDGTSANSACSC
Take B1: the binding entry in assay [1] is on record as “binds”.

B2: GDP-bound form of Vps21p (Vps21 S21N) (protein, UniProt P36017 1-210)
chain: B1 chain with S21N, L66Q
Turning to B2, the binding entry in assay [1] is given as “no binding”.

B3: GFP-Vps21p (protein, UniProt P36017 1-210)
chain: B1 chain with L66Q
With B3, the values for the binding entry in assay [2] and in assay [3] were “binds weakly” and “binds”, respectively.
